Some of the results follow. Further columns of the screen follow, without active or inactive calls. Most of these compounds were active or inconclusive in the main read-out, so they are no random draw. Words in brackets tell the shape of the fitted curve; partial curves, single points and poor fits give uncertain potencies.
Experiment: qHTS Assay for Lipid Storage Modulators in Drosophila S3 Cells;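 for cell number change: cells counted by Cell Tracker Red CMTPX staining in the red channel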
Details: BODIPY lipid droplet fluorescence, 18-24 h; for cell number change: measured here: cell count max response, cells fed with added oleic acid
Summary of the method: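 Drosophila S3 cells got compounds at several concentrations plus oleic acid (400 uM solution). Laser-scanning cytometry with 488 nm excitation read lipid droplets at 500-530 nm and cells at 575-640 nm. Percent activity was relative to 20 uM Triacsin C.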

[1] = measured here: cell number channel AC50, cells fed with added oleic acid
[2] = measured here: lipid fluorescence (Fed channel) AC50, cells fed with added oleic acid

Structure (SMILES)	cell number change	AC50 [1]	AC50 [2]
COc1ccccc1N(C(=O)Cn1nnc(-c2ccc(C)o2)n1)C(C(=O)NC1CCCC1)c1ccncc1 (stereo not drawn)	31.6%	0.206 µM [rising, full curve]	–
Cc1cc(NC(=O)CSc2nc3[nH]c(=O)cc(O)c3s2)ccc1Br	–	–	0.651 µM [rising, full curve]
O=C(NC(Cc1c[nH]c2ccccc12)C(=O)O)c1ccccc1 (stereo not drawn)	–	0.58 µM [rising, full curve, poor fit]	0.82 µM [rising, single point]
Cc1ccc(NC(=O)Cc2ccc(-n3cccc3)cc2)c(C)c1	40.7%	29.1 µM [rising, single point]	29.1 µM [rising, single point]
Cc1ccc(NC(=O)CSc2nnc(N)s2)c([N+](=O)[O-])c1	56.6%	29.1 µM [rising, single point]	–
COc1ccc(OC)c(S(=O)(=O)NCC(=O)NC2CCCCCC2)c1	-3.06%	6.51 µM [falling, single point]	4.11 µM [falling, single point]
Fc1ccccc1Cc1noc(CN2CCCC(CN3CCOCC3)C2)n1 (stereo not drawn)	22.6%	–	–
Cc1cc(C)nc(NC(=NCCc2c[nH]c3ccccc23)NC(=O)C(C)(C)C)n1	-13.2%	0.00461 µM [falling, full curve, poor fit]	–
CC(=O)[C@@H]1[C@@H](C(=O)c2ccc(C)cc2)[C@]2(C(=O)Nc3ccccc32)[C@H]2C=Cc3cc(F)ccc3N12	9.78%	–	29.1 µM [falling, single point]
COCCNc1oc(-c2ccco2)nc1S(=O)(=O)c1ccccc1	22.8%	–	–
COc1ccc(-n2nc3c(N4CCCC(C(=O)NCc5ccccc5C)C4)nnc(C)c3c2C)cc1 (stereo not drawn)	-20.6%	–	2.91 µM [falling, full curve, poor fit]
c1ccn2c(SCc3ccc4c(c3)OCO4)nnc2c1	21.1%	3.26 µM [rising, single point]	8.2 µM [rising, partial curve]
N#CC1(NC(=O)COC(=O)c2cc(=O)[nH]c3ccccc23)CCCCC1	15.7%	–	–
CCCC(=O)Nc1nnc(SCC(=O)Nc2ccc3c(c2)OCCO3)s1	-17.1%	–	–
O=C(Nc1ccc(OC(F)F)cc1)c1cc(S(=O)(=O)N2CCCCC2)ccc1N1CCOCC1	-10.9%	–	6.51 µM [rising, single point]
CSc1c(CC(=O)Nc2ccccc2)n(C)c2ccccc12	-33.4%	14.6 µM [falling, single point]	0.116 µM [rising, full curve, poor fit]
COc1ccc(CCNC(=O)c2[nH]c(C)c(C(C)=O)c2C)cc1	-15.8%	–	6.51 µM [rising, single point]
COc1ccc(S(=O)(=O)NCc2ccco2)cc1C(=O)N1CCOCC1	0.833%	–	–
O=C(NCc1ccco1)C1CCN(C(=O)c2ccc(Cl)cc2)CC1	-1.18%	–	1.16 µM [falling, partial curve]
CCOC(=O)c1cc(-c2ccco2)nc2c1c(C)nn2CCC#N	43.1%	–	3.26 µM [rising, partial curve]

Structure (SMILES)	cell number change	AC50 [1]	AC50 [2]
CC(=O)c1cccc(NC(=O)c2ccc3ccccc3c2)c1	-23.4%	–	29.1 µM [falling, single point]
Cc1ccc(-n2nc(C)c(C(=O)N3CCN(C(=O)c4ccco4)CC3)c2-n2cccc2)cc1	–	–	20.6 µM [falling, partial curve, poor fit]
CCCn1c(SCC(=O)Nc2cccc(C)n2)nnc1-c1ccco1	-0.608%	–	–
COc1cc(NC(=O)c2cc([N+](=O)[O-])ccc2NC(=O)CNC2CCCCC2C)cc(OC)c1 (stereo not drawn)	1.32%	–	–
Cc1cc(C)nc(NC(=NCCc2c[nH]c3ccccc23)NC(=O)Nc2ccc(Cl)c(Cl)c2)n1	20%	0.103 µM [rising, full curve, poor fit]	29.1 µM [rising, single point]
CC(NC(=O)CN1C(=O)NC(C)(c2cccc3ccccc23)C1=O)c1ccccc1 (stereo not drawn)	3.75%	–	–
COc1ccc(/C=N/NC(=S)Nc2ccccc2)cc1COc1ccc(Br)cc1	3.08%	–	0.164 µM [rising, full curve, poor fit]
CCCCSc1nc(C)c(C(C)=O)cc1C#N	-27.8%	–	32.6 µM [falling, single point]
Cc1c(F)cccc1NS(=O)(=O)c1ccc2c(c1)NC(=O)CO2	22.4%	6.51 µM [falling, single point]	–
Cc1oc(-c2ccc(Cl)cc2)nc1CN1CCCC(C(=O)NCc2cccnc2)C1 (stereo not drawn)	21.3%	–	20.6 µM [rising, single point]
CC(C(=O)Nc1ccc(Cl)cc1)N1C(=O)NC2(CCCC2)C1=O (stereo not drawn)	15.3%	–	6.51 µM [falling, single point]
CCOc1ccc(NC(=O)COc2ccccc2)c([N+](=O)[O-])c1	5.76%	–	2.06 µM [falling, partial curve]
N#C/C(=C\c1ccccc1)C(=O)Nc1ccccn1	14.5%	–	29.1 µM [rising, single point]
Nc1c(-c2ccccc2)c(CN2CCOCC2)nn1-c1ccc(C(=O)O)cc1	-11.3%	–	–
CCCc1cc(=O)[nH]c(SCC(=O)C(C)(C)C)n1	-27.4%	0.0366 µM [falling, full curve, poor fit]	0.92 µM [falling, full curve, poor fit]
CN(C)Cc1c(C(=O)N/N=C/c2cccc(OCc3ccc(F)cc3)c2)nnn1-c1nonc1N	14.5%	–	29.1 µM [rising, single point]
COc1ccc(C(=O)C2CCCN(C(=O)c3ccc(CSC)o3)C2)cc1F (stereo not drawn)	-6.07%	–	29.1 µM [falling, single point]
CC(C)Cc1ccc(CN2CCCC(NC(=O)CCn3cnnn3)C2)cc1 (stereo not drawn)	6.07%	–	–
COc1ccc(-n2c(COc3cccc(C)c3)nnc2SCC(=O)NCc2ccco2)cc1	-176%	29.1 µM [falling, single point]	29.1 µM [falling, single point]

Reference: PubChem BioAssay AID2685 (National Center for Advancing Translational Sciences (NCATS), 2010)
